In assay [1] the target is T1, GFP-VAMP721^Y57D (Arabidopsis thaliana) (UniProt Q9ZTW3).
T1 sequence: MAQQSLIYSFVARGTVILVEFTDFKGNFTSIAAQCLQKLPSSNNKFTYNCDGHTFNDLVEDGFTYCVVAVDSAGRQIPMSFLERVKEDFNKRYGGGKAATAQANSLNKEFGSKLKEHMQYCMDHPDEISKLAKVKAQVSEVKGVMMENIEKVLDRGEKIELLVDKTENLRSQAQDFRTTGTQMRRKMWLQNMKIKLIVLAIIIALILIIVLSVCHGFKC
The assay can be described thus: affinity purification with mass spectrometry.

Assay [2] concerns the target T2, GFP-VAMP721 (VESICLE-ASSOCIATED MEMBRANE PROTEIN 721) (Arabidopsis thaliana) (UniProt Q9ZTW3).
T2 sequence: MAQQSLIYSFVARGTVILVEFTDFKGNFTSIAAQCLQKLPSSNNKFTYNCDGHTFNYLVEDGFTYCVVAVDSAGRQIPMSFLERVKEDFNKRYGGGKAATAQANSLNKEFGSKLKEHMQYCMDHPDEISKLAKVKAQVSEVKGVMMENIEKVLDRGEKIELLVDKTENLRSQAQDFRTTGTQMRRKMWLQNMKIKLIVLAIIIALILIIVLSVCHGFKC
The assay can be described thus: affinity purification with mass spectrometry.

The source of these data is article doi:10.1101/2023.03.18.533296.

These are yes or no findings as the source states them, for the method shown. Binding seen in cells or lysates may run through a third protein. Here binding means that the protein was enriched with, or labelled near, the bait; the list need not be complete. Sequences can lack the tags named with a protein.

B1: CCT8 (protein, UniProt Q94K05 1-549)
chain: MVGMSMQPYGIQSMLKEGYRHLSGLDEAVIKNIEACKELSTITRTSLGPNGMNKMVINHLDKLFVTNDAATIVNELEIQHPAAKLLVLAAKAQQEEIGDGANLTISFAGELLQNAEELIRMGLHPSEIISGYTKAVSKAVEILEQLVETGSETMDVRNKDEVISRMRAAVASKQFGQEEIICSLVTDACIQVCPKNPTNFNVDNVRVSKLLGGGLHNSCIVRGMVLKSDAVGSIKRMEKAKVAVFAGGVDTTATETKGTVLIHSAEQLENYAKTEEAKVEELIKAVAESGAKVIVSGGSIGEMALHFCERYKIMVLKISSKFELRRFCRTAGAVAHLKLSRPSPEDLGYVDSISVEEIGGVTVTIARNEEGGNSISTVVLRGSTDSILDDLERAVDDGVNTYKAMCRDSRIVPGAAATEIELAQRLKEYANAEIGLDKYAITKYAESFEFVPKTLADNAGLNAMEIIAALYTGHGSGNTKLGIDLEEGACKDVSETKVWDLFATKLFALKYASDAACTVLRVDQIIMAKPAGGPRRDAAQAAGAGAEED
With B1, in assay [1], the binding result is recorded as “binds”.

B2: ATJ3 (protein, UniProt Q94AW8 1-420)
chain: MFGRGPSKKSDNTKFYEILGVPKSASPEDLKKAYKKAAIKNHPDKGGDPEKFKELAQAYEVLSDPEKREIYDQYGEDALKEGMGGGGGGHDPFDIFSSFFGGGPFGGNTSRQRRQRRGEDVVHPLKVSLEDVYLGTMKKLSLSRNALCSKCNGKGSKSGASLKCGGCQGSGMKVSIRQLGPGMIQQMQHACNECKGTGETINDRDRCPQCKGDKVIPEKKVLEVNVEKGMQHSQKITFEGQADEAPDTVTGDIVFVLQQKEHPKFKRKGEDLFVEHTLSLTEALCGFQFVLTHLDGRSLLIKSNPGEVVKPDSYKAISDEGMPIYQRPFMKGKLYIHFTVEFPDSLSPDQTKALEAVLPKPSTAQLSDMEIDECEETTLHDVNIEDEMRRKAQAQREAYDDDDEDDDHPGGAQRVQCAQQ
Consider B2, for which the binding entry in assay [1] was “binds”.

B3: SNAP33 (protein, UniProt Q9S7P9 1-300)
chain: MFGLRKSPANLPKHNSVDLKSSKPNPFDSDDESDNKHTLNPSKRTTSEPSLADMTNPFGGERVQKGDSSSSKQSLFSNSKYQYKNNFRDSGGIENQSVQELEGYAVYKAEETTKSVQGCLKVAEDIRSDATRTLVMLHDQGEQITRTHHKAVEIDHDLSRGEKLLGSLGGMFSKTWKPKKTRPINGPVVTRDDSPTRRVNHLEKREKLGLNSAPRGQSRTREPLPESADAYQRVEMEKAKQDDGLSDLSDILGELKNMAVDMGSEIEKQNKGLDHLHDDVDELNFRVQQSNQRGRRLLGK
As for B3, the binding result in assay [2] was “binds”.

B4: NPSN11 (protein, UniProt Q944A9 1-265)
chain: MDPISAVSEELAEIEGQINDIFRALSNGFQKLEKIKDANRQSRQLEELTDKMRDCKSLIKDFDREIKSLESGNDASTNRMLNDRRQSMVKELNSYVALKKKYSSNLASNNKRVDLFDGPGEEHMEENVLLASNMSNQELMDKGNSMMDDTDQAIERGKKIVQETINVGTDTSAALKAQTEQMSRVVNELDSIHFSLKKASKLVKEIGRQVATDKCIMAFLFLIVIGVIAIIIVKIVNPNNKDIRDIPGVGLAPPAMNRRLLWNHY
B4: the binding result in assay [2] is on record as “binds”.

B5: ARF-like GTPase ARL8b (protein, UniProt Q93Y31 1-184)
chain: MGLWDALLNWLRSLFFKQEMELSLIGLQNAGKTSLVNVVATGGYSEDMIPTVGFNMRKVTKGSVTIKLWDLGGQPRFRSMWERYCRSVSAIVYVVDAADPDNLSVSKSELHDLLSKTSLNGIPLLVLGNKIDKPGALSKEALTDEMGLKSLTDREVCCFMISCKNSTNIDQVIDWLVKHSKSSN
Consider B5, for which the binding entry in assay [1] is reported as “binds”.

B6: NPSN12 (protein, UniProt Q9LNH6 1-265)
chain: MASELPMSPHLEQIHGEIRDHFRALANGFQRLDKIKDSSRQSKQLEELAEKMRDCKRLVKEFDRELKDGEARNSPQVNKQLNDEKQSMIKELNSYVALRKTYLNTLGNKKVELFDTGAGVSGEPTAEENVQMASTMSNQELVDAGMKRMDETDQAIERSKQVVHQTLEVGTQTASNLKGQTDQMGRVVNDLDTIQFSLKKASQLVKEIGRQVATDKCIMAFLFLIVCGVIAIIIVKIVNPNNKDIRDIPGLAPPAQSRKLLYFRE
With B6, the binding entry in assay [2] is recorded as “binds”.

B7: ATJ2 (protein, UniProt P42825 1-419)
chain: MFGRGPSRKSDNTKFYEILGVPKTAAPEDLKKAYKKAAIKNHPDKGGDPEKFKELAQAYEVLSDPEKREIYDQYGEDALKEGMGGGGGGHDPFDIFSSFFGSGGHPFGSHSRGRRQRRGEDVVHPLKVSLEDVYLGTTKKLSLSRKALCSKCNGKGSKSGASMKCGGCQGSGMKISIRQFGPGMMQQVQHACNDCKGTGETINDRDRCPQCKGEKVVSEKKVLEVNVEKGMQHNQKITFSGQADEAPDTVTGDIVFVIQQKEHPKFKRKGEDLFVEHTISLTEALCGFQFVLTHLDKRQLLIKSKPGEVVKPDSYKAISDEGMPIYQRPFMKGKLYIHFTVEFPESLSPDQTKAIEAVLPKPTKAAISDMEIDDCEETTLHDVNIEDEMKRKAQAQREAYDDDEEDHPGGAQRVQCAQQ
For B7, in assay [1], the binding entry is “binds”.

B8: SYP61 (protein, UniProt Q946Y7 1-245)
chain: MSSAQDPFYIVKEEIQDSIDKLQSTFHKWERISPDMGDQAHVAKELVATCGSIEWQVDELEKAITVAAKDPSWYGIDEAELEKRRRWTSNARTQVRNVKSGVLAGKVSSGAGHASEVRRELMRMPNSGEASRYDQYGGRDDDGFVQSESDRQMLLIKQQDEELDELSKSVQRIGGVGLTIHDELVAQERIIDELDTEMDSTKNRLEFVQKKVGMVMKKAGAKGQMMMICFLLVLFIILFVLVFLT
B8: in assay [2], the binding result was “binds”.

B9: VTI12 (protein, UniProt Q9SEL5 1-222)
chain: MSDVFEGYERQYCELSTNLSRKCHSASVLSNGEEKKGKIAEIKSGIDEADVLIRKMDLEARSLQPSAKAVCLSKLREYKSDLNQLKKEFKRVSSADAKPSSREELMESGMADLHAVSADQRGRLAMSVERLDQSSDRIRESRRLMLETEEVGISIVQDLSQQRQTLLHAHNKLHGVDDAIDKSKKVLTAMSRRMTRNKWIITSVIVALVLAIILIISYKLSH
For the molecule B9, the binding result in assay [2] is reported as “binds”.
